Some of the results follow. These are further read-outs of the screen, such as a control signal, another cell line or another target. No call is given for them. Compounds called inactive in the main read-out are mostly missing here. Words in brackets tell the shape of the fitted curve; partial curves, single points and poor fits give uncertain potencies.
Test: qHTS Assay for Lipid Storage Modulators in Drosophila S3 Cells;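 for cell number change: cells counted by Cell Tracker Red CMTPX staining in the red channel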
Settings: BODIPY lipid droplet fluorescence, 18-24 h; for cell number change: measured here: cell count max response, cells fed with added oleic acid
How it was run: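 Drosophila S3 cells loaded with oleic acid (400 uM, as added) and compounds at several concentrations; lipid droplets imaged by 488-nm laser-scanning cytometry, 500–530 nm intensity and object ratio to cell channel. Percent activity normalized to 20 uM Triacsin C.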

[1] = measured here: cell number channel AC50, cells fed with added oleic acid
[2] = measured here: lipid fluorescence (Fed channel) AC50, cells fed with added oleic acid

Row | SMILES | cell number change [%] | AC50 [1] | AC50 [2]
1 | COc1ccc(-c2onc(C)c2-c2ccc(C(=O)OC(C)C)o2)c(O)c1 | -50.1 | 16.4 µM [falling, single point] | 11.6 µM [falling, partial curve]
2 | COc1ccccc1N(CC(=O)NC1CCCC1)S(=O)(=O)c1ccc(C)cc1 | -9.66 | – | –
3 | Clc1ccc(NCc2nncn2-c2ccccc2)cc1 | 22.3 | – | 23.1 µM [rising, single point]
4 | CC(=O)c1c[nH]c(C(=O)NCC2CCCO2)c1 (configuration not stated) | -84.8 | 20.6 µM [falling, partial curve] | 23.1 µM [falling, partial curve]
5 | O=C(CN1C(=O)C2CCCCN2C(=O)c2ccccc21)Nc1ccc(F)cc1 (configuration not stated) | -10.6 | – | –
6 | COc1cccc(NC(=O)NC2CC(=O)N(c3ccc4c(c3)OCCO4)C2)c1 (configuration not stated) | 8.84 | – | –
7 | O=C(O)c1cccnc1Cl | 4.69 | – | –
8 | Nn1c(SCc2ccc(F)cc2)nnc1-c1ccccn1 | 14.6 | – | 29.1 µM [rising, single point]
9 | CC(Oc1ccccc1)C(=O)Nc1ccc(F)c(S(=O)(=O)N2CCOCC2)c1 (configuration not stated) | -25.9 | – | 7.31 µM [falling, partial curve, poor fit]
10 | CCCCNC(=O)c1ccccc1SCc1c(C)noc1C | 8.84 | – | 7.94 µM [rising, partial curve, poor fit]
11 | CC(=O)Nc1ccc(C2NC(=O)CCC2[N+](=O)[O-])cc1 (configuration not stated) | 2.13 | – | –
12 | CC(C)NC(=O)N(O)C1N(Cc2ccc3c(c2)OCO3)C(=S)SC1(C)C (configuration not stated) | -51.9 | 29.1 µM [falling, single point] | 23.1 µM [falling, single point]
13 | CC(=O)Nc1ccc(NC(=O)CN2C(=O)COc3ccc(S(=O)(=O)N4CCCCC4)cc32)cc1 | -18 | – | –
14 | CCOC(=O)C1=C(C)NC(C)=C(C(=O)OCC)C1C1=COCCO1 | – | 4.61 µM [rising, single point] | 2.31 µM [rising, partial curve, poor fit]
15 | CC1CCC2(CC1)NC(=O)N(NC(=O)c1cccc(N(C)C)c1)C2=O (configuration not stated) | -17.8 | – | 0.731 µM [rising, single point]
16 | Nc1nc(CSC(=S)N2CCN(c3ccccc3)CC2)nc(Nc2ccccc2)n1 | 4.78 | – | 1.64 µM [rising, partial curve]
17 | COc1ccc(-c2n[nH]c(=S)n2-c2ccccc2C)cc1OC | -11 | – | –
18 | Cn1c(=O)[nH]c(=O)c2[nH]c(CN3CCN(C(=O)c4ccco4)CC3)nc21 | -87.4 | 16.4 µM [falling, partial curve, poor fit] | –
19 | C=CCN(C(=O)CCc1ccccc1OC)c1nc(-c2ccc(S(C)(=O)=O)cc2)cs1 | 714 | 14.6 µM [rising, partial curve] | 11.6 µM [falling, partial curve]
20 | O=C(/C=C/Nc1ccccc1)c1ccccc1 | 154 | 20.6 µM [rising, partial curve] | 1.64 µM [rising, partial curve]
21 | COc1ccc(-c2c[nH]c(=O)[nH]c2=O)cc1OC | – | – | 0.00461 µM [rising, full curve, poor fit]

Row | SMILES | cell number change [%] | AC50 [1] | AC50 [2]
22 | Cc1cc(OC(=O)c2cc(Br)ccc2Cl)c([N+](=O)[O-])c(=O)[nH]1 | 27.2 | – | –
23 | CCCc1cc(=O)[nH]c(SCC(=O)N2CC3(C)CC2CC(C)(C)C3)n1 (configuration not stated) | -10.4 | 0.0058 µM [falling, full curve, poor fit] | 0.00517 µM [falling, full curve, poor fit]
24 | COc1cccc(NC(=O)N2CCN(c3cccc(C)c3C)CC2)c1 | 113 | 29.1 µM [rising, single point] | 29.1 µM [rising, single point]
25 | Cc1cc(CN(C)C(=O)c2ccc3nc(Cc4ccccc4F)oc3c2)n[nH]1 | 29 | – | 4.11 µM [rising, partial curve]
26 | CCCn1cnc2scc(-c3ccc(C)c(C)c3)c2c1=O | -21.7 | – | 6.51 µM [rising, partial curve]
27 | CCc1n(CC(O)COCc2ccccc2)c2ccccc2[n+]1C (configuration not stated) | -0.906 | 0.58 µM [falling, single point] | –
28 | Cc1cc(C(=O)NNC(=S)NCC(C)C)cs1 | 33.9 | 1.46 µM [rising, full curve] | –
29 | Cc1cccc(NC(=O)c2ccccc2C(=O)O)c1 | 47.2 | 13 µM [rising, partial curve] | –
30 | COc1ccc(-c2n[nH]c(C)c2-c2cnn(-c3ccccc3)c2)c(O)c1C | -47.3 | 32.6 µM [falling, single point] | 29.1 µM [falling, single point]
31 | CSc1ccc(/C=N/Nc2nc(C)cc(=O)[nH]2)cc1 | 3.5 | – | –
32 | COc1ccccc1C(C)Nc1nc(-c2cccnc2)nc2ccccc12 (configuration not stated) | 8.87 | – | –
33 | O=C(CSCc1ccc([N+](=O)[O-])cc1)NC1CCCCCC1 | 26.4 | – | 7.31 µM [rising, partial curve, poor fit]
34 | CCCCn1c(SCC(N)=O)nc2c(sc3ccccc32)c1=O | – | 3.66 µM [rising, single point] | –
35 | Cc1ccc(S(=O)(=O)N2CCOCC2)cc1NC(=O)COc1cccc(-n2cnnn2)c1 | 32.6 | 29.1 µM [rising, single point] | 0.00517 µM [rising, full curve, poor fit]
36 | CC(C)(C)C(=O)NC(=S)NNC(=O)c1ccc(Cl)cc1Cl | -27.3 | – | –
37 | O=C(CCS(=O)(=O)c1ccc(Br)s1)NCc1ccccc1 | 6.43 | – | 4.61 µM [falling, single point]
38 | O=C(Nc1ccccc1-c1nc2ccccc2s1)c1cccnc1 | 23.8 | 0.0326 µM [rising, full curve, poor fit] | 0.0058 µM [rising, full curve, poor fit]
39 | Cc1cc(C)cc(C(=O)NC(=S)Nc2cccnc2)c1 | -7.55 | – | 6.51 µM [rising, single point]
40 | Cc1ccc(Nc2cc(C)nc(NCc3ccccc3)n2)cc1 | -34.4 | 16.4 µM [falling, single point] | 16.4 µM [falling, single point]
41 | COc1ccc2c(c1)nc(NCCCO)n2Cc1ccccc1 | 15.6 | – | 5.17 µM [rising, full curve]
42 | CCCNc1nc(C)cc(-c2cc(C(=O)NC3CCCC3)on2)n1 | -1.38 | – | 6.51 µM [rising, single point]

An excerpt of these results, as tab-separated lines.
Row	SMILES	cell number change [%]	AC50 [1]	AC50 [2]
23	CCCc1cc(=O)[nH]c(SCC(=O)N2CC3(C)CC2CC(C)(C)C3)n1 (configuration not stated)	-10.4	0.0058 µM [falling, full curve, poor fit]	0.00517 µM [falling, full curve, poor fit]
24	COc1cccc(NC(=O)N2CCN(c3cccc(C)c3C)CC2)c1	113	29.1 µM [rising, single point]	29.1 µM [rising, single point]
29	Cc1cccc(NC(=O)c2ccccc2C(=O)O)c1	47.2	13 µM [rising, partial curve]	–

(more compounds)

Row | SMILES | cell number change [%] | AC50 [1] | AC50 [2]
43 | CCCOc1ccc(/C=C2/C(=O)ON=C2C)cc1Cl | -5.67 | – | 6.51 µM [rising, single point]
44 | CCOc1cc(C(=O)N/N=C/c2ccsc2)cc(OCC)c1OCC | -2.1 | – | 18.4 µM [falling, single point]
45 | Nn1c(SCc2cccc(F)c2)nnc1-c1ccncc1 | 14.3 | – | –
46 | Oc1ccc(NCc2ccccc2OCc2ccccc2)cc1 | -2.51 | – | 29.1 µM [rising, single point]
47 | Cc1nn(-c2ccccc2)c2sc(C(=O)c3c(N)n(C)c(=O)n(C)c3=O)cc12 | -43.7 | 14.6 µM [falling, partial curve] | 16.4 µM [falling, single point]
48 | COc1ccc2c3c(cccc13)C(=O)CC2 | -29.4 | – | 16.4 µM [falling, single point]
49 | CS(=O)(=O)NCCSCc1c(F)cccc1Cl | -236 | 29.1 µM [falling, partial curve] | 20.6 µM [falling, partial curve]
50 | COc1cccc(NC(=O)CN(C)C(=O)C23CC4CC(CC(Cl)(C4)C2)C3)c1 | -19.9 | – | 20.6 µM [falling, single point]
51 | CN1CCN(c2nc(-c3cccs3)cs2)CC1 | 1.68 | – | –
52 | CC(C)(C)c1cc(Br)c(O)c(N=Nc2ccc(S(=O)(=O)N3CCOCC3)cc2)c1 | -62.9 | 23.1 µM [falling, single point] | 18.4 µM [falling, partial curve]
53 | COc1ccc(C2OC(=O)CC2C(=O)N2CCN(c3cc(Cl)ccc3C)CC2)cc1OC (configuration not stated) | -5.99 | 0.259 µM [rising, full curve, poor fit] | –
54 | CCN(CC)C(=O)c1nc[nH]c1C(=O)N(CC)CC | 8.9 | – | 0.82 µM [rising, partial curve]
55 | CCCCNC(=O)c1nn2c(C(F)(F)F)cc(-c3ccccc3)nc2c1Br | -11.6 | – | 29.1 µM [falling, single point]
56 | O=C1CCCc2oc3c(c21)CCCC3 | 35.5 | 0.651 µM [falling, full curve] | 0.517 µM [falling, partial curve]
57 | COC(=O)C1=CN(CCCN2CCCC2=O)C=C(C(=O)OC)C1c1cccs1 | 35.3 | 29.1 µM [rising, single point] | –
58 | CC(C)(C)C(=O)NC(=S)Nc1ccc(S(=O)(=O)Nc2nccs2)cc1 | 18.8 | – | 14.6 µM [rising, single point]
59 | CC(C)N(C(=O)Cn1c(-c2cccnc2)ccc(C#N)c1=O)C(C)C | 6.99 | – | 18.4 µM [rising, partial curve]
60 | COc1ccccc1C(=O)NCCC(=O)N(C)Cc1cccs1 | 6.51 | – | –
61 | COc1cc(Cl)cc(/C=N/NC(N)=O)c1O | 29.2 | – | –
62 | Cn1c(O)c(/C=N/NC(=O)c2cc3ccccc3cc2O)c2ccccc21 | -41.9 | 2.06 µM [falling, partial curve, poor fit] | –

From PubChem BioAssay AID2685 (National Center for Advancing Translational Sciences (NCATS), 2010)
